Test results from the supplement of paper PMC8728848.
Some of the results follow.

Columns and labels:
Experiment in all cases: glycan array binding signal (z-score within array); higher = stronger binding
Conditions in all cases: glycan notation: IUPAC condensed, linker removed
[1] = target: Neu5Ac(a2-8)Neu5Ac(a2-3)Gal(b1-4)Glc
Procedure, shortened: (§1)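 Arrays were curated from the Consortium for Functional Glycomics database, 3228 in total, and kept only where the protein sequence was available. Binding is expressed as a within-array Z-score. This score was averaged across arrays of the same protein sequence at different concentrations or buffers and across linkers, and negative values can be read as non-binding.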

[2] = target: Neu5Ac(a2-8)Neu5Ac(a2-3)Gal(b1-4)GlcNAc
Procedure, shortened: as §1

[3] = target: Neu5Ac(a2-8)Neu5Ac(a2-3)[Gal(b1-3)GalNAc(b1-4)]Gal(b1-4)Glc
Procedure, shortened: as §1

[4] = target: Neu5Ac(a2-8)Neu5Ac(a2-3)[GalNAc(b1-4)]Gal(b1-4)Glc
Procedure, shortened: as §1

[5] = target: Neu5Ac(a2-8)Neu5Ac(a2-8)Neu5Ac
Procedure, shortened: as §1

[6] = target: Neu5Ac(a2-8)Neu5Ac(a2-8)Neu5Ac(a2-3)Gal(b1-4)Glc
Procedure, shortened: as §1

[7] = target: Neu5Ac(a2-8)Neu5Ac(a2-8)Neu5Ac(a2-3)[Gal(b1-3)GalNAc(b1-4)]Gal(b1-4)Glc
Procedure, shortened: as §1

[8] = target: Neu5Ac(a2-8)Neu5Ac(a2-8)Neu5Ac(a2-3)[GalNAc(b1-4)]Gal(b1-4)Glc
Procedure, shortened: as §1

[9] = target: Neu5Ac(a2-8)Neu5Ac(a2-8)Neu5Ac(a2-8)Neu5Ac(a2-3)[GalNAc(b1-4)]Gal(b1-4)Glc
Procedure, shortened: as §1

[10] = target: Neu5Ac(a2-8)Neu5Gc(a2-3)Gal(b1-4)GlcNAc
Procedure, shortened: as §1

[11] = target: Neu5Ac(b1-6)GalNAc
Procedure, shortened: as §1

[12] = target: Neu5Ac(b2-6)Gal(b1-4)GlcNAc
Procedure, shortened: as §1

[13] = target: Neu5Ac(b2-6)GalNAc
Procedure, shortened: as §1

[14] = target: Neu5Ac9Ac(a2-3)Gal(b1-3)GlcNAc
Procedure, shortened: as §1

[15] = target: Neu5Ac9Ac(a2-3)Gal(b1-4)GlcNAc
Procedure, shortened: as §1

[16] = target: Neu5Ac9Ac(a2-6)Gal(b1-4)GlcNAc
Procedure, shortened: as §1

[17] = target: Neu5Gc(a2-3)Gal(b1-3)GlcNAc
Procedure, shortened: as §1

[18] = target: Neu5Gc(a2-3)Gal(b1-3)[Fuc(a1-4)]GlcNAc
Procedure, shortened: as §1

[19] = target: Neu5Gc(a2-3)Gal(b1-4)Glc
Procedure, shortened: as §1

[20] = target: Neu5Gc(a2-3)Gal(b1-4)GlcNAc
Procedure, shortened: as §1

[21] = target: Neu5Gc(a2-3)Gal(b1-4)GlcNAc(b1-3)Gal(b1-4)GlcNAc(b1-2)Man(a1-3)[Neu5Gc(a2-3)Gal(b1-4)GlcNAc(b1-3)Gal(b1-4)GlcNAc(b1-2)Man(a1-6)]Man(b1-4)GlcNAc(b1-4)GlcNAc
Procedure, shortened: as §1

[22] = target: Neu5Gc(a2-3)Gal(b1-4)[Fuc(a1-3)]GlcNAc
Procedure, shortened: as §1

[23] = target: Neu5Gc(a2-6)Gal(b1-4)GlcNAc
Procedure, shortened: as §1

[24] = target: Neu5Gc(a2-6)GalNAc
Procedure, shortened: as §1

[25] = target: Neu5Gc(a2-8)Neu5Ac(a2-3)Gal(b1-4)GlcNAc
Procedure, shortened: as §1

[26] = target: Neu5Gc(a2-8)Neu5Gc(a2-3)Gal(b1-4)GlcNAc
Procedure, shortened: as §1

[27] = target: Neu5Gc(a2-8)Neu5Gc(a2-3)Gal(b1-4)GlcNAc(b1-3)Gal(b1-4)GlcNAc
Procedure, shortened: as §1

[28] = target: Neu5Gc(a2-8)Neu5Gc(a2-6)Gal(b1-4)GlcNAc
Procedure, shortened: as §1

[29] = target: Neu5Gc(b2-6)Gal(b1-4)GlcNAc
Procedure, shortened: as §1

B1: CRT-1 (Homo sapiens), P27797 (protein)
chain: MLLSVPLLLGLLGLAVAEPAVYFKEQFLDGDGWTSRWIESKHKSDFGKFVLSSGKFYGDEEKDKGLQTSQDARFYALSASFEPFSNKGQTLVVQFTVKHEQNIDCGGGYVKLFPNSLDQTDMHGDSEYNIMFGPDICGPGTKKVHVIFNYKGKNVLINKDIRCKDDEFTHLYTLIVRPDNTYEVKIDNSQVESGSLEDDWDFLPPKKIKDPDASKPEDWDERAKIDDPTDSKPEDWDKPEHIPDPDAKKPEDWDEEMDGEWEPPVIQNPEYKGEWKPRQIDNPDYKGTWIHPEIDNPEYSPDPSIYAYDNFGVLGLDLWQVKSGTIFDNFLITNDEAYAEEFGNETWGVTKAAEKQMKDKQDEEQRLKEEEEDKKRKEEEEAEDKEDDEDKDEDEEDEEDKEEDEEEDVPGQAKDEL
- glycan array binding signal (z-score) [1]: -0.31
- glycan array binding signal (z-score) [2]: -0.488
- glycan array binding signal (z-score) [3]: -0.631
- glycan array binding signal (z-score) [4]: 0.059
- glycan array binding signal (z-score) [5]: -0.213
- glycan array binding signal (z-score) [6]: 0.443
- glycan array binding signal (z-score) [7]: 0.909
- glycan array binding signal (z-score) [8]: -0.406
- glycan array binding signal (z-score) [9]: 0.128
- glycan array binding signal (z-score) [10]: -0.349
- glycan array binding signal (z-score) [11]: -0.091
- glycan array binding signal (z-score) [12]: -0.481
- glycan array binding signal (z-score) [13]: 0.098
- glycan array binding signal (z-score) [14]: -0.124
- glycan array binding signal (z-score) [15]: 0.312
- glycan array binding signal (z-score) [16]: 0.185
- glycan array binding signal (z-score) [17]: -0.645
- glycan array binding signal (z-score) [18]: -0.207
- glycan array binding signal (z-score) [19]: -0.151
- glycan array binding signal (z-score) [20]: -0.316
- glycan array binding signal (z-score) [21]: -0.414
- glycan array binding signal (z-score) [22]: -0.01
- glycan array binding signal (z-score) [23]: -0.116
- glycan array binding signal (z-score) [24]: 0.197
- glycan array binding signal (z-score) [25]: 0.176
- glycan array binding signal (z-score) [26]: -0.33
- glycan array binding signal (z-score) [27]: -0.189
- glycan array binding signal (z-score) [28]: -0.147
- glycan array binding signal (z-score) [29]: 0.165
